Laboratory results from PubChem BioAssay AID1347075 (National Center for Advancing Translational Sciences (NCATS), 2019).
The whole screen tested about 400,000 compounds, of which about 5,500 (1.4%) were called active. The inconclusive results got no clear call from the source; some entries with a clear call stand among them for comparison. Calls come from the whole dose curve; as a rule, active = well fitted cell-killing curve with a large enough effect; inconclusive = small, poorly fitted or top-dose-only effect, or effect the other way; inactive = flat fitted curve, though single readings scatter. Potencies of inconclusive entries are doubtful fits and often do not repeat.

test: qHTS assay for MDR1-selective chemotherapeutics: Primary screen using the parental adenocarcinoma cell KB-3-1; settings: KB-3-1 viability, CellTiter-Glo ATP luminescence, 72 h; activity change, negative = cytotoxic: at 46.1 µM (top of the series); note: nearly all actives have a fitted effect of over 60% in size
In short: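 Cytotoxicity in the drug-sensitive parental line KB-3-1 was scored as loss of CellTiter-Glo luminescence following 72 h incubation with compound. Values come from curve fitting of normalized concentration-response data.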
% is set by controls: 0 for no effect and ±100 for the full control effect; potency is the fitted concentration of half-maximal effect.

Question: Which Potency does the source give for `COC(=O)C1(c2ccccc2)NC(c2cccs2)C2C(=O)N(c3ccccc3)C(=O)C21` (centres undefined) here?
Answer: The Potency was inconclusive: 29.1 µM [rising, single point].

Question: Which Potency does the source give for `Cc1cc(C)c(O)c(-c2n[nH]c3c2C(c2cccc(O)c2)N(Cc2ccco2)C3=O)c1` (centres undefined) here?
Answer: Its Potency is “inactive”.

Question: For `O=C(Nc1cccnc1)c1ccc([N+](=O)[O-])o1`, which Potency is on record?
Answer: Its Potency is inconclusive: 18.4 µM [cytotoxic, single point].

Question: For `Cc1cc(NC(=O)c2ccc(Br)o2)ccc1NC(=O)c1ccco1`, which Potency is on record?
Answer: The Potency was inconclusive: 20.6 µM [cytotoxic, single point].

Question: Which Potency does the source give for `Cc1cc(C)c(S(=O)(=O)N2CCCOC2CNC(=O)C(=O)NCc2ccncc2)c(C)c1` (centres undefined) here?
Answer: The Potency was “inactive”.

Question: Which Potency does the source give for `COCCNC(=O)c1ccc(CN2CCC(Cc3ccccc3)CC2)cc1` here?
Answer: Its Potency is “inactive”.

Question: For `Cc1ccnc2c1ccc1cccnc12`, which Potency is on record?
Answer: The Potency was inconclusive: 5.8 µM [cytotoxic, full curve].

Question: With `CC(=O)N1CCN(C(=O)CSc2ncnc3sc(C)c(C)c23)CC1` as the compound, how does the Potency read?
Answer: Its Potency is inconclusive: 8.2 µM [rising, partial curve, poor fit].

Question: With `CCc1cc2c(=O)c(-c3ccc4c(c3)OCCO4)coc2cc1OS(C)(=O)=O` as the compound, how does the Potency read?
Answer: The Potency was inconclusive: 23.1 µM [cytotoxic, single point].

Question: With `CC(C)N(C(=O)CSc1nn2c(=O)c(C(C)(C)C)nnc2s1)c1ccccc1` as the compound, how does the Potency read?
Answer: The Potency was inconclusive: 29.1 µM [cytotoxic, single point].

Question: With `COc1ccc(CCNC(=O)CSc2ncnc3c2oc2ccccc23)cc1OC` as the compound, how does the activity change, negative = cytotoxic read?
Answer: The activity change, negative = cytotoxic was inconclusive: -50.6%.

Question: Which Potency does the source give for `Cc1ccccc1C(=O)Nc1cc(C(F)(F)F)ccc1-n1cncn1` here?
Answer: The Potency was inconclusive: 29.1 µM [cytotoxic, single point].

Question: Which Potency does the source give for `C=C(C)CN=C1SC(C(=O)Nc2sc3c(c2C(=O)OC)CCC3)C(N)=C1C(N)=O` (centres undefined) here?
Answer: The Potency was inconclusive: 18.4 µM [cytotoxic, single point].

Question: Which Potency does the source give for `COc1ccc(-n2sc3c(c2=S)-c2cc(OC)ccc2NC3(C)C)cc1` here?
Answer: Its Potency is “inactive”.

Question: For `Cc1ccc(Nc2c(-c3ccc(N4CCOCC4)cc3)nc3ncccn23)c(C)c1`, which Potency is on record?
Answer: The Potency was inconclusive: 29.1 µM [cytotoxic, single point].

Question: With `CC(=O)c1ccc(Nc2nc(C(N)Cc3ccc(Cl)cc3)cs2)cc1` (centres undefined) as the compound, how does the Potency read?
Answer: Its Potency is inconclusive: 25.9 µM [cytotoxic, partial curve, poor fit].

Question: For `COC(=O)c1sc2ccccc2c1-n1cccc1C(=O)C(=O)Nc1ccc(OC)cc1`, which Potency is on record?
Answer: The Potency was active: 5.8 µM.

Question: With `CCc1nnc(NC(=O)c2oc3cc(C)c(C)cc3c2C)s1` as the compound, how does the Potency read?
Answer: Its Potency is inconclusive: 1.3 µM [rising, partial curve].

Question: With `CC(C)C(c1nnnn1Cc1ccccc1)N1CCN(Cc2ccc3c(c2)OCO3)CC1` (centres undefined) as the compound, how does the Potency read?
Answer: Its Potency is inconclusive: 29.1 µM [cytotoxic, single point].

Question: With `Cc1cc(C)nc(SCc2ccc(C(=O)NNC(=O)Nc3cccc(Cl)c3)cc2)n1` as the compound, how does the Potency read?
Answer: The Potency was inconclusive: 29.1 µM [cytotoxic, single point].

Question: Which Potency does the source give for `C=CCn1c(=NC(=O)C2COc3ccccc3O2)sc2cccc(OC)c21` (centres undefined) here?
Answer: The Potency was inconclusive: 29.1 µM [cytotoxic, single point].

Question: Which Potency does the source give for `Cc1cccc2nc(-c3ccco3)c(Nc3ccccc3)n12` here?
Answer: The Potency was inconclusive: 29.1 µM [cytotoxic, single point].

Question: With `C[C@H](CO)N1C[C@H](C)[C@H](CN(C)Cc2ccncc2)OCc2ccccc2-c2c(n(C)c3ccccc23)C1=O` as the compound, how does the Potency read?
Answer: The Potency was “inactive”.

Question: For `CCCCN(C(=O)c1ccc(S(=O)(=O)N2CCCCC2)cc1)C1CCS(=O)(=O)C1` (centres undefined), which Potency is on record?
Answer: Its Potency is “inactive”.

Question: With `COC(=O)[C@@]12C[C@@H](CC(=O)NCCCCc3ccccc3)C(=O)N(Cc3ccco3)C1=CCC(C)(C)C2` as the compound, how does the Potency read?
Answer: The Potency was “inactive”.

Question: With `COc1ccc(N(Cc2ccccc2)S(=O)(=O)c2cccc(C(=O)Nc3ccccn3)c2)cc1` as the compound, how does the Potency read?
Answer: The Potency was inconclusive: 29.1 µM [cytotoxic, single point].

Question: For `Nc1c(C(=O)Nc2ccc3c(c2)OCCO3)nnn1Cc1ccccc1`, which Potency is on record?
Answer: Its Potency is inconclusive: 25.9 µM [cytotoxic, single point].

Question: Which Potency does the source give for `Clc1ccc(Cn2ncc3c(NCc4ccccc4)ncnc32)cc1` here?
Answer: The Potency was active: 5.17 µM.

Question: Which Potency does the source give for `CCOC(=O)Cn1c(=NC(=O)c2cc(-c3cccs3)nc3ccccc23)sc2cc(S(N)(=O)=O)ccc21` here?
Answer: Its Potency is “inactive”.

Question: For `CC(C)Oc1ccc(Br)cc1C(=O)N/N=C/c1c[nH]c2ccccc12`, which Potency is on record?
Answer: Its Potency is inconclusive: 29.1 µM [cytotoxic, single point].

Question: Which Potency does the source give for `CCN(c1ccccc1)S(=O)(=O)c1cc(C(=O)Nc2cccc(Cl)c2)ccc1F` here?
Answer: Its Potency is inconclusive: 18.4 µM [cytotoxic, single point].

Question: For `C/C(=N/NC(=O)c1cc(O)c(O)c(O)c1)c1ccc([N+](=O)[O-])cc1`, which Potency is on record?
Answer: The Potency was “inactive”.

Question: For `COc1cccc(CNC(=O)[C@H](CCSC)NC(=O)N2CCn3c2nc2ccccc23)c1`, which Potency is on record?
Answer: Its Potency is “inactive”.

Question: For `O=C(Cn1c(-c2cccs2)cc2ccccc21)NCCCN1CCN(c2ccc(F)cc2)CC1`, which Potency is on record?
Answer: Its Potency is “inactive”.

Question: Which Potency does the source give for `CCOC(=O)c1cc(NC(=O)Nc2nccs2)c(C)nc1C` here?
Answer: The Potency was inconclusive: 25.9 µM [rising, single point].

Question: With `CN1C(=O)N(C)C2(c3ccccc3)NC(=O)NC12c1ccccc1` (centres undefined) as the compound, how does the Potency read?
Answer: The Potency was “inactive”.

Question: For `Cc1cc(C)c(NS(=O)(=O)c2ccc3c(c2)NC(=O)CCS3)c(C)c1`, which Potency is on record?
Answer: Its Potency is inconclusive: 20.6 µM [cytotoxic, single point].

Question: For `COc1ccc(CCNC(=O)COc2ccc(N(C)S(=O)(=O)c3ccc(Cl)cc3)cc2)cc1`, which Potency is on record?
Answer: The Potency was inconclusive: 29.1 µM [cytotoxic, single point].

Question: For `COc1ccc(C2=CC(=O)C[C@H](COCc3ccccc3)N(C(=O)OC(C)(C)C)O2)cc1`, which Potency is on record?
Answer: The Potency was “inactive”.

Question: With `COc1ccc(NC(=O)CN(C)C(=O)/C=C/c2ccc(OCc3ccccc3)cc2)cc1` as the compound, how does the Potency read?
Answer: Its Potency is inconclusive: 18.4 µM [cytotoxic, single point].

Question: Which Potency does the source give for `C=C1C(=O)OC2C=C(CO)CCC=C(CO)CC(OC(=O)C(C)C)C12` (centres undefined) here?
Answer: Its Potency is inconclusive: 16.4 µM [cytotoxic, single point].

Question: With `Cc1ccc(-c2cnc(SCC(=O)N3CCCc4ccccc43)n2C)cc1` as the compound, how does the Potency read?
Answer: The Potency was “inactive”.

Question: Which Potency does the source give for `O=C(NCCC1=CCCCC1)C1CCC(CNc2nc(=S)[nH]c3ccccc23)CC1` (centres undefined) here?
Answer: Its Potency is inconclusive: 18.4 µM [cytotoxic, single point].

Question: Which Potency does the source give for `COc1ccc(CNC(=O)C(c2ccc(C)o2)N(C(=O)c2csnn2)c2ccc(C(C)C)cc2)cc1` (centres undefined) here?
Answer: Its Potency is inconclusive: 13 µM [cytotoxic, partial curve, poor fit].

Question: Which Potency does the source give for `Cc1ccc[n+](CC(=O)c2ccc(NC(=O)c3ccccc3)cc2)c1` here?
Answer: Its Potency is “inactive”.

Question: Which Potency does the source give for `CCOc1ccc(S(=O)(=O)Nc2ccc(C(=O)NCc3ccncc3)cc2)cc1` here?
Answer: Its Potency is “inactive”.

Question: Which Potency does the source give for `Cc1nc(NC(=O)c2ccccc2)sc1-c1csc(N)n1` here?
Answer: The Potency was active: 3.66 µM.

Question: Which Potency does the source give for `CC(C)C[C@@H](C(=O)O)N(Cc1cccc(CN([C@@H](CC(C)C)C(=O)O)S(C)(=O)=O)c1)S(C)(=O)=O` here?
Answer: Its Potency is “inactive”.

Question: With `COc1ccc(S(=O)(=O)N2CCC(c3nnnn3-c3ccccc3)CC2)cc1OC` as the compound, how does the Potency read?
Answer: Its Potency is inconclusive: 29.1 µM [cytotoxic, single point].

Question: Which Potency does the source give for `Cc1ccc(C(=O)Nc2cccc(C(=O)NCc3ccco3)c2)cc1` here?
Answer: The Potency was active: 3.26 µM.

Question: For `COC(=O)c1ccc(CNC(=O)Cn2cnc3c(NCc4ccccc4)ncnc32)cc1`, which Potency is on record?
Answer: Its Potency is inconclusive: 32.6 µM [cytotoxic, single point].

Question: With `Cc1cc(SCC(=O)c2cccs2)nc2ccccc12` as the compound, how does the Potency read?
Answer: Its Potency is inconclusive: 25.9 µM [cytotoxic, single point].

Question: Which Potency does the source give for `O=C(Nc1nccs1)c1cc(Cl)ccc1[N+](=O)[O-]` here?
Answer: The Potency was inconclusive: 29.1 µM [cytotoxic, single point].

Question: With `Cc1[nH]c2c(C)cccc2c1CC(=O)O` as the compound, how does the Potency read?
Answer: Its Potency is inconclusive: 29.1 µM [rising, single point].

Question: For `O=C(N/N=C/C(Br)=C\c1ccccc1)c1n[nH]c2c1CCC2`, which Potency is on record?
Answer: The Potency was “inactive”.

Question: For `CCOc1ccc(C(=O)NC(C)(C)CC)cc1`, which Potency is on record?
Answer: The Potency was inconclusive: 16.4 µM [rising, single point].

Question: Which Potency does the source give for `CCc1noc(C)c1C(=O)N1CCN(S(=O)(=O)c2ccccc2C(F)(F)F)CC1` here?
Answer: The Potency was “inactive”.

Question: With `Cc1cc(C)cc(OCC(=O)OC(C)C(=O)Nc2c(C)n(C)n(-c3ccccc3)c2=O)c1` (centres undefined) as the compound, how does the Potency read?
Answer: Its Potency is “inactive”.

Question: Which Potency does the source give for `Cc1ccccc1NC(=O)c1nc(SCc2ccccc2F)ncc1Cl` here?
Answer: Its Potency is inconclusive: 23.1 µM [rising, single point].

Question: For `O=C(N/N=C/c1ccccc1OC(F)F)c1cc(-c2ccncc2)nc2ccccc12`, which Potency is on record?
Answer: The Potency was active: 18.4 µM.

Question: With `COc1ccc(CNC(=O)CC23CC4CC(CC(C4)C2)C3)cc1` as the compound, how does the Potency read?
Answer: The Potency was inconclusive: 18.4 µM [cytotoxic, single point].

Question: For `O=C(c1ccc(Br)cc1)c1cn[nH]c1-c1ccccc1O`, which Potency is on record?
Answer: The Potency was inconclusive: 16.4 µM [cytotoxic, single point].

Question: Which Potency does the source give for `c1ccc2c(-c3csc(-c4ccncc4)n3)c[nH]c2c1` here?
Answer: The Potency was inconclusive: 20.6 µM [cytotoxic, single point].

Question: For `CCOc1ccc(CCN2C(=S)N([C@@H](CC(C)C)CN3CCCC3CN3C(=S)NC[C@@H]3Cc3ccc(O)cc3)C[C@@H]2Cc2ccccc2)cc1` (some centres undefined), which Potency is on record?
Answer: Its Potency is inconclusive: 32.6 µM [cytotoxic, single point].

Question: Which Potency does the source give for `CCCc1c(-c2ccccc2Br)ncn1Cc1ccccc1OC` here?
Answer: The Potency was inconclusive: 25.9 µM [cytotoxic, partial curve, poor fit].

Question: For `O=C(CCSCc1cccc(Cl)c1)NCCc1ccccc1`, which Potency is on record?
Answer: Its Potency is inconclusive: 0.0065 µM [rising, full curve].

Question: For `CSc1ccc(CN2CCCN(C)CC2)cc1`, which Potency is on record?
Answer: The Potency was “inactive”.

Question: Which Potency does the source give for `Nc1c(C(=O)NCc2ccc(F)cc2)c2nc3ccccc3nc2n1CCCN1CCOCC1` here?
Answer: Its Potency is inconclusive: 20.6 µM [cytotoxic, single point].

Question: With `O=C(NCc1ccco1)c1cc(-c2ccccc2)nn1CC1CC(c2cccnc2)=NO1` (centres undefined) as the compound, how does the Potency read?
Answer: The Potency was “inactive”.
